At least one structure is not confirmed: it was looked up by name or label, or the drawing left a doubt.
System: rapamycin-dependent mutant (uniRapR insertion in dnaN)
Assay: Ligand-dependent growth of rapamycin-dependent dnaN-uniRapR insertion mutant at 42° C.
Format: cell-based, E. coli
Settings: 2.5 micromolar rapamycin
From the text: Starting with a plasmid borne copy of wild type dnaN under constitutive expression, the uniRapR domain was inserted into 4 candidate insertion sites with a 3 amino acid linker library upstream and downstream of the uniRapR domain. The resulting libraries (all four insertion sites with their linker libraries) were pooled and transformed into a strain of E. coli with a mutation on the genomic copy of dnaN that made the protein temperature sensitive (dnaN protein from genome is non-functional at 42° C. and it is bactericidal lethal).
The transformants were grown at 42° C. (lethal temperature for genomic copy so as to force bacteria to rely on the plasmid copies with the uniRapR insertions) as well as with the addition of 10 uM rapamycin (to complement the function of any rapamycin-dependent insertional fusion dnaN mutants) and allowed to grow overnight.
The extracted plasmid DNA was re-transformed into fresh dnaN-temperature sensitive strains and grown on LB agar supplemented with rapamycin at 42° C. The next day colonies were picked and re-spotted onto LB agar plates with or without rapamycin and grown at 42° C. […] The biological replicates of a 10-fold serial dilution of the rapamycin-dependent mutant grown without rapamycin (clear columns) or with 2.5 micromolar rapamycin (columns with growth) were prepared. All growth took place at 42° C.

CO[C@H]1C[C@@H]2CC[C@@H](C)[C@@](O)(O2)C(=O)C(=O)N2CCCC[C@H]2C(=O)O[C@H]([C@H](C)C[C@@H]2CC[C@@H](O)[C@H](OC)C2)CC(=O)[C@H](C)/C=C(\C)[C@@H](O)[C@@H](OC)C(=O)[C@H](C)C[C@H](C)/C=C/C=C/C=C/1C [rapamycin]
growth of 10-fold serial dilution: growth
